Reference: PMC12340957, “Interactions between Lipopolysaccharide and Peptide Bacteriocin BacSp222 Influence Their Biological Activities” (ACS Infectious Diseases, 2025)

Key:
[1] = Gel filtration of LPS, BacSp222 and complexes; type: physicochemical
Protocol: Gel filtration was conducted on a Superdex 200 Increase 10/300 GL (Cytiva, Marlborough, MA, USA) column using an UltiMate 3000 HPLC apparatus (Thermo, Waltham, MA, USA). The separations were performed at room temperature in 50 mM NH4COOH pH 5.8 at a flow rate of 0.6 mL/min. The spectrophotometric detection was conducted at 215 and 280 nm, and before separations, the column was calibrated using tryptophan (204 Da), […] (75 kDa), aldolase (158 kDa), ferritin (440 kDa), and Blue Dextran 2000 (2 MDa). The following samples were separated: (1) 375 μg of LPS O55:B5 (IEC), (2) 375 μg of LPS O111:B4 (PE), (3) 75 μg of BacSp222, (4) 375 μg of LPS O55:B5 (IEC) + 75 μg BacSp222, and (5) 375 μg of LPS O111:B4 (PE) + 75 μg BacSp222. All above solutions were prepared in phosphate-buffered saline (PBS) without Ca^2+ and Mg^2+ (Gibco, Paisley, UK) and were preincubated before separation for 15 min at 37 °C. The fractions containing LPS O55:B5 alone and LPS-BacSp222 complex, visible as peaks eluting at 12.5–14 min and 12.5–16 min, both marked by arrows in Figure , were manually collected, freeze-dried, and subjected to sodium dodecyl sulfate polyacrylamide gel electrophoresis (SDS-PAGE) under reducing conditions. […]

[2] = Isothermal titration calorimetry of BacSp222 against LPS; type: binding; conditions: ITC, 37 °C; for BacSp222 to LPS molar ratio at saturation: 93 μM BacSp222 into 48.5 μM LPS O55:B5 (IEC), mean of two titrations

For-MAGLLRFLLSKGRALYNWAKSHVGKVWEWLKSGATYEQIKEWIENALGWR [BacSp222]
peptide identified in 14 min/620 kDa peak ([1]; LPS O55:B5 (IEC) incubated with bacteriocin, SDS-PAGE, denaturing, N-terminal sequencing): unequivocally identified by N-terminal sequencing as BacSp222 | complex formation with LPS ([1]; gel filtration, only with micellar forms of LPS): form a direct complex with LPS, but only with their micellar forms | BacSp222 to LPS molar ratio at saturation ([2]; 137 mM NaCl (PBS, low ionic strength)): 0.5 | number of association steps ([2]; 137 mM NaCl): at least 3 | BacSp222 to LPS molar ratio at saturation ([2]; 500 mM NaCl (high ionic strength)): 0.8 | number of association steps ([2]; 500 mM NaCl): ≥ 2 | BacSp222 to LPS molar ratio at which enthalpies at both ionic strengths become comparable ([2]; 137 and 500 mM NaCl): approximately 0.15 | enthalpy of reference titration without LPS ([2]; BacSp222 into buffer, irrespective of salt concentration): identical, near-zero enthalpies

Ends that are not written are not given here. * marks the point of attachment. For = O=C*
